Assay results taken from paper PMC4742195.
No constants are given. Whether binding was seen depends on the method and setting. Binding seen in cells or lysates may run through a third protein. Some entries that bind do so weakly or less than the wild type. Tags and fused reporters may be left off the sequences shown.

Legend:
[1] = target: T1, Myc-USP37 (ubiquitin-specific protease 37) (human) (UniProt Q86T82); experiment: co-IP; 293T cells transfected with Myc-Usp37 and/or Flag-14-3-3γ; reciprocal co-IP, anti-Myc IP and anti-Flag blot; lysates with antibodies at 4°C overnight, protein-A/G beads
T1 sequence: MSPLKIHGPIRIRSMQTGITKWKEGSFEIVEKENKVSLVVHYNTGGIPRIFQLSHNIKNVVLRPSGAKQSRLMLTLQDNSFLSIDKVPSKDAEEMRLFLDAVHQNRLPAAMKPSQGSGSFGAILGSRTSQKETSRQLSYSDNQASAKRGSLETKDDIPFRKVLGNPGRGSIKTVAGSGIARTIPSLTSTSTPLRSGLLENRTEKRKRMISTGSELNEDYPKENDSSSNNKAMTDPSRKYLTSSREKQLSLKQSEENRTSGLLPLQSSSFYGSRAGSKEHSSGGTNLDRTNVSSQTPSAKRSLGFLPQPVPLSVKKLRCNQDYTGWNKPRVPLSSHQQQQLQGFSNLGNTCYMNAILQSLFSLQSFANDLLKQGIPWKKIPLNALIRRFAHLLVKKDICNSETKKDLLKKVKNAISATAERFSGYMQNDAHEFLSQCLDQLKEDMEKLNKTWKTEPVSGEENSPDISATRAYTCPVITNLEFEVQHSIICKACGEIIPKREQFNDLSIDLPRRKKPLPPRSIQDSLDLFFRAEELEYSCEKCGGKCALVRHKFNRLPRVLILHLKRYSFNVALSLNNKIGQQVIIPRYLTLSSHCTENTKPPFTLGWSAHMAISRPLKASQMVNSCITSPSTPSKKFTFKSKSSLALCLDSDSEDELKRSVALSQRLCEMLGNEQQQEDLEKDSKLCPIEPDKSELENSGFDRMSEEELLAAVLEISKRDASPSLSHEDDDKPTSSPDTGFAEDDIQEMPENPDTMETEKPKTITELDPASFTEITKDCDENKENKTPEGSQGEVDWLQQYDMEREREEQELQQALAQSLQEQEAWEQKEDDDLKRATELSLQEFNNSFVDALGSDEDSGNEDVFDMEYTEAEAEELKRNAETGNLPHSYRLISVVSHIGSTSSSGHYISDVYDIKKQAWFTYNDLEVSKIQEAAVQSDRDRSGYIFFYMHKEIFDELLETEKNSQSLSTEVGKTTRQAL

GST-14-3-3γ (murine) = target: T2, GST-14-3-3γ (murine) (UniProt P61982); experiment: pull-down; GST-14-3-3γ on glutathione-Sepharose beads incubated with lysates of 293T cells overexpressing Myc-USP37; immunoblot; only the target purified
T2 sequence: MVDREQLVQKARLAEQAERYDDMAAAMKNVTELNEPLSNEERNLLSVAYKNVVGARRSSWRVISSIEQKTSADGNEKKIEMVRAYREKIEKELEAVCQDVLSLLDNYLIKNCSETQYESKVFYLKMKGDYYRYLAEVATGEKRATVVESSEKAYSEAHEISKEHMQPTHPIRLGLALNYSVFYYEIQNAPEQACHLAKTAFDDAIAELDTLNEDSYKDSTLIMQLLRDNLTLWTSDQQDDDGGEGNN

[2] = target: T3, endogenous 14-3-3γ (human (endogenous in 293T and A549)) (UniProt P61981); experiment: co-IP; lysates of 293T cells overexpressing Myc-USP37; IP with an anti-14-3-3γ antibody (endogenous 14-3-3γ)
T3 sequence: T2 sequence

[3] = target: T1, Myc-USP37 (ubiquitin-specific protease 37) (human); experiment: co-IP; HA-14-3-3 isoforms transfected into 293T cells together with Myc-USP37

B1: Flag-14-3-3γ (protein, UniProt P61982 1-247)
chain: T2 sequence
binding [1]: binds

B2: Myc-USP37 (ubiquitin-specific protease 37) (enzyme, UniProt Q86T82-1 1-979)
chain: T1 sequence
binding (GST-14-3-3γ (murine)): binds
binding [2]: binds

B3: HA-14-3-3γ (protein, UniProt P61982 1-247)
chain: T2 sequence
binding [3]: binds
